Measurements as given in PMC9376946, “Peptide-RNA Coacervates as a Cradle for the Evolution of Folded Domains” (Journal of the American Chemical Society, 2022).

Experiments:
[1] = DEER of doubly labeled PA-2/12 (intra-monomer distance, alpha-helical character)
polyU = experiment: CW-EPR of PA-12 in the presence of polyU (bound, slow-motion population); type: binding
Procedure: Lyophilized, spin-labeled peptides were dissolved in Milli-Q water and centrifuged at 4000 rpm for 10 min to remove insoluble aggregates. The soluble fractions were used to prepare stock solutions of 250–500 μM peptide. Labeled peptide concentrations were determined by comparing the area under the curve of the EPR signal against that of standard solutions of 10–285 μM TEMPO. For the EPR measurements in D2O, 200 μL of the stock solution was lyophilized and re-dissolved in D2O. The concentration of the unlabeled peptide stock solutions was determined using the bicinchoninic acid assay (Thermo Fisher Scientific) and ranged from 0.8 to 1.2 mM peptide. A stock solution of 500 mM MES, pH 5.6 was used to adjust all samples to a final concentration of 50 mM MES, pH 5.6. Aliquots of 10 mg/mL polyuridylic acid (polyU; Sigma Aldrich) were prepared in Milli-Q water and diluted as necessary. For CW-EPR measurements, a quartz capillary of 0.6 mm i.d. and 0.84 mm o.d. was filled with 7–8 μL of the sample and sealed with Critoseal (Fisherbrand, Fisher Scientific) at one end. A single capillary was placed in an X-band EPR tube of 2 mm i.d. and 2.4 mm o.d. for measurements, except for spin concentration below 50 μM, where two capillaries were used.
Each sample was freshly prepared and the time to collect […] CW-EPR data was 30–40 min.
CW-EPR spectra were recorded on an Elexsys E500 X-Band (9.5 GHz) Bruker spectrometer using a high sensitivity resonator at room temperature. The following parameters were used: 0.1 mT field modulation amplitude, a 15 mT scan range, and 20 mW microwave power. Each scan was 42 s and at least 9 scans were accumulated for each data set. For samples with a high concentration of polyU or a low concentration of labeled peptide, at least 25–36 scans were collected to improve the signal to noise (S/N) ratio. Simulations of the spectra were performed using the “Chili” routine of EasySpin (www.easyspin.org).[21]
After characterizing the dynamic and structural properties of PA in solution, we proceeded to explore these properties upon interaction with the homopolymeric RNA molecule polyU. […] PA-12, like the unlabeled peptide, produced coacervates.[17] […] Using CW-EPR, binding of PA to RNA can be tracked through spin label dynamics. We initially kept the concentration of PA-12 constant at 150 μM and varied the amount of polyU. The CW-EPR spectra in Figure 3B indicate superposition of two populations, I and II. […] The relative intensity of II increases with the amount of polyU added, indicating binding of PA-12 to polyU. The percentage of II increased from 32% at 0.1 mg/mL polyU to 93% at 1 mg/mL polyU. Increasing to 2 mg/mL polyU and reducing the PA-12 concentration to 100 μM increased the population of II to 95% (Figures 3B and S15G). Such restricted motion and dynamic components have also been reported for proteins undergoing phase separation.[38],[39]

[2] = 100 μM PA-2/12 in 3 M guanidinium chloride

Row | Sequence | DEER modulation depth, denatured sample [1, 2] | centre of broad distance distribution (denatured) [1, 2] | distance distribution, longer maximum ([1]; spin-diluted: 20 μM PA-2/12 in 200 μM total PA, MES pH 5.6, D2O, 20% glycerol-d8, assigned to unfolded α-helix) | distance distribution, shorter maximum ([1]; spin-diluted: 20 μM PA-2/12 in 200 μM total PA, MES pH 5.6, D2O, 20% glycerol-d8, assigned to α-helix) | rotational correlation time, component I (polyU; 30 μM PA-12, 1 mg/mL polyU) | rotational correlation time, component II (polyU; 30 μM PA-12, 1 mg/mL polyU) | rotational correlation time, component I (polyU; 50 μM PA-12, 1 mg/mL polyU) | rotational correlation time, component II (polyU; 50 μM PA-12, 1 mg/mL polyU) | rotational correlation time, component I (polyU; 100 μM PA-12, 1 mg/mL polyU) | rotational correlation time, component II (polyU; 100 μM PA-12, 1 mg/mL polyU) | rotational correlation time, component I (polyU; 150 μM PA-12, 1 mg/mL polyU) | rotational correlation time, component II (polyU; 150 μM PA-12, 1 mg/mL polyU) | rotational correlation time, component I (polyU; 200 μM PA-12, 1 mg/mL polyU) | rotational correlation time, component II (polyU; 200 μM PA-12, 1 mg/mL polyU)
1 | RCRRASVEELTCVPGIGPRLARRILERLA [PA-2/12, PA with spin labels at positions 2 and 12, which span the first α-helix of the HhH motif] | 2.7% | 3.3 nm | 3.3 nm | 2.6 nm | – | – | – | – | – | – | – | – | – | –
2 | RIRRASVEELTCVPGIGPRLARRILERLA [PA-12, Precursor-Arg peptide in which position 12 has been modified with a cysteine and attached to an M-TEMPO spin label] | – | – | – | – | 0.75 ± 0.05 ns | 9.6 ± 1.4 ns | 0.69 ± 0.13 ns | 10.6 ± 1.9 ns | 0.53 ± 0.07 ns | 11.6 ± 1.6 ns | 0.52 ± 0.12 ns | 11.9 ± 1.4 ns | 0.52 ± 0.12 ns | 13.5 ± 2.3 ns
